Results: patent US20110008766A1
No constants are given. Whether binding was seen depends on the method and setting. Some entries that bind do so weakly or less than the wild type.

By UniProt entry, the sequences of proteins in these tests, tags left out. Residues count along the entry.
UniProt P80188, residues 21-198: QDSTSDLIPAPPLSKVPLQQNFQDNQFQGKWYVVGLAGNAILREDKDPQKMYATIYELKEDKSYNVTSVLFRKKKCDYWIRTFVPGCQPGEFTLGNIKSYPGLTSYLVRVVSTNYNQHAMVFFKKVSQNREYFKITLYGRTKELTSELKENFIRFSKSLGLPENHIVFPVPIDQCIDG

B1: DVD719 (antibody)
VH: EVQLVESGGGLVQPGGSLKLSCAASGFTFNNYYMSWVRQTPERRLEWVAYISSSGGSTYYSDSVRGRFTISRDTARNTLYLQMTSLKSEDTAMYYCARHFGDYSYFDYWGQGTTLTVSSASTKGPSVFPLAPEVQLVESGGGLVQPGGSLKLSCAASGFTFNNYYMSWVRQTPERRLEWVAYISSSGGSTYYSDSVRGRFTISRDTARNTLYLQMTSLKSEDTAMYYCARHFGDYSYFDYWGQGTTLTVSS
VL: DIQMTQSPASLSASVGETVTITCRASENFYSYLAWYQQKQGKSPQLLVYNAKTLAEGVPSRFSGSGSGTQFSLKINSLQPEDFGTYYCQHHYDIPLTFGAGTKLELKRTVAAPSVFIFPPDIQMTQSPASLSASVGETVTITCRASENFYSYLAWYQQKQGKSPQLLVYNAKTLAEGVPSRFSGSGSGTQFSLKINSLQPEDFGTYYCQHHYDIPLTFGAGTKLELKR
B2: DVD720 (antibody)
VH: EVQLVESGGGLVQPGGSLKLSCAASGFTFNNYYMSWVRQTPERRLEWVAYISSSGGSTYYSDSVRGRFTISRDTARNTLYLQMTSLKSEDTAMYYCARHFGDYSYFDYWGQGTTLTVSSASTKGPEVQLVESGGGLVQPGGSLKLSCAASGFTFNNYYMSWVRQTPERRLEWVAYISSSGGSTYYSDSVRGRFTISRDTARNTLYLQMTSLKSEDTAMYYCARHFGDYSYFDYWGQGTTLTVSS
VL: DIQMTQSPASLSASVGETVTITCRASENFYSYLAWYQQKQGKSPQLLVYNAKTLAEGVPSRFSGSGSGTQFSLKINSLQPEDFGTYYCQHHYDIPLTFGAGTKLELKRTVAAPDIQMTQSPASLSASVGETVTITCRASENFYSYLAWYQQKQGKSPQLLVYNAKTLAEGVPSRFSGSGSGTQFSLKINSLQPEDFGTYYCQHHYDIPLTFGAGTKLELKR
B3: DVD721 (antibody)
VH: KIQLVQSGPELKKPGETVKISCKASGYTFTNYGMNWVKQAPGKGLKWMGWININTGEPTYAEEFKGRFAFSLETSATTAFLQINNLKNEDTATYLCARDSYSGGFDYWGQGTIVTVSSASTKGPSVFPLAPKIQLVQSGPELKKPGETVKISCKASGYTFTNYGMNWVKQAPGKGLKWMGWININTGEPTYAEEFKGRFAFSLETSATTAFLQINNLKNEDTATYLCARDSYSGGFDYWGQGTIVTVSS
VL: DIVMTQSPSSLSVSAGEKVTLSCKSSQSLLISGDQKNYLAWYQQKPGQPPKLLIYGASTRDSGVPDRFTGSGSGADFTLTISSVQAEDLAVYYCQNDHSFPPTFGAGTKLELKRTVAAPSVFIFPPDIVMTQSPSSLSVSAGEKVTLSCKSSQSLLISGDQKNYLAWYQQKPGQPPKLLIYGASTRDSGVPDRFTGSGSGADFTLTISSVQAEDLAVYYCQNDHSFPPTFGAGTKLELKR
B4: DVD722 (antibody)
VH: KIQLVQSGPELKKPGETVKISCKASGYTFTNYGMNWVKQAPGKGLKWMGWININTGEPTYAEEFKGRFAFSLETSATTAFLQINNLKNEDTATYLCARDSYSGGFDYWGQGTIVTVSSASTKGPKIQLVQSGPELKKPGETVKISCKASGYTFTNYGMNWVKQAPGKGLKWMGWININTGEPTYAEEFKGRFAFSLETSATTAFLQINNLKNEDTATYLCARDSYSGGFDYWGQGTIVTVSS
VL: DIVMTQSPSSLSVSAGEKVTLSCKSSQSLLISGDQKNYLAWYQQKPGQPPKLLIYGASTRDSGVPDRFTGSGSGADFTLTISSVQAEDLAVYYCQNDHSFPPTFGAGTKLELKRTVAAPDIVMTQSPSSLSVSAGEKVTLSCKSSQSLLISGDQKNYLAWYQQKPGQPPKLLIYGASTRDSGVPDRFTGSGSGADFTLTISSVQAEDLAVYYCQNDHSFPPTFGAGTKLELKR
B5: DVD723 (bispecific antibody)
VH: EVQLVESGGGLVQPGGSLKLSCAASGFTFNNYYMSWVRQTPERRLEWVAYISSSGGSTYYSDSVRGRFTISRDTARNTLYLQMTSLKSEDTAMYYCARHFGDYSYFDYWGQGTTLTVSSASTKGPSVFPLAPKIQLVQSGPELKKPGETVKISCKASGYTFTNYGMNWVKQAPGKGLKWMGWININTGEPTYAEEFKGRFAFSLETSATTAFLQINNLKNEDTATYLCARDSYSGGFDYWGQGTIVTVSS
VL: DIQMTQSPASLSASVGETVTITCRASENFYSYLAWYQQKQGKSPQLLVYNAKTLAEGVPSRFSGSGSGTQFSLKINSLQPEDFGTYYCQHHYDIPLTFGAGTKLELKRTVAAPSVFIFPPDIVMTQSPSSLSVSAGEKVTLSCKSSQSLLISGDQKNYLAWYQQKPGQPPKLLIYGASTRDSGVPDRFTGSGSGADFTLTISSVQAEDLAVYYCQNDHSFPPTFGAGTKLELKR
B6: DVD726 (bispecific antibody)
VH: KIQLVQSGPELKKPGETVKISCKASGYTFTNYGMNWVKQAPGKGLKWMGWININTGEPTYAEEFKGRFAFSLETSATTAFLQINNLKNEDTATYLCARDSYSGGFDYWGQGTIVTVSSASTKGPEVQLVESGGGLVQPGGSLKLSCAASGFTFNNYYMSWVRQTPERRLEWVAYISSSGGSTYYSDSVRGRFTISRDTARNTLYLQMTSLKSEDTAMYYCARHFGDYSYFDYWGQGTTLTVSS
VL: DIVMTQSPSSLSVSAGEKVTLSCKSSQSLLISGDQKNYLAWYQQKPGQPPKLLIYGASTRDSGVPDRFTGSGSGADFTLTISSVQAEDLAVYYCQNDHSFPPTFGAGTKLELKRTVAAPDIQMTQSPASLSASVGETVTITCRASENFYSYLAWYQQKQGKSPQLLVYNAKTLAEGVPSRFSGSGSGTQFSLKINSLQPEDFGTYYCQHHYDIPLTFGAGTKLELKR
B7: DVD727 (bispecific antibody)
VH: EVQLVESGGGLVQPGGSLKLSCAASGFTFNNYYMSWVRQTPERRLEWVAYISSSGGSTYYSDSVRGRFTISRDTARNTLYLQMTSLKSEDTAMYYCARHFGDYSYFDYWGQGTTLTVSSASTKGPQVQLQQPGSELVRPGASVKLSCKASGYTFTSYWMHWVKQRPGQGLEWIGNIYPGTVNTNYDEKFKNKATLTVDTSSSTAYMLLSSLTSEDSAVYYCTRDYYGGGLNYWGQGTTLTVSS
VL: DIQMTQSPASLSASVGETVTITCRASENFYSYLAWYQQKQGKSPQLLVYNAKTLAEGVPSRFSGSGSGTQFSLKINSLQPEDFGTYYCQHHYDIPLTFGAGTKLELKRTVAAPSIVMTQTPKFLLVSAGDRVTITCKASQSVSNDVAWFQQKPGQSPKLLIYYASNRYAGVPDRFTGSGFGTDFTFTISTVQAEDLAVYFCHQDYSSPRTFGGGTKLEIKR
B8: DVD730 (bispecific antibody)
VH: QVQLQQPGSELVRPGASVKLSCKASGYTFTSYWMHWVKQRPGQGLEWIGNIYPGTVNTNYDEKFKNKATLTVDTSSSTAYMLLSSLTSEDSAVYYCTRDYYGGGLNYWGQGTTLTVSSASTKGPEVQLVESGGGLVQPGGSLKLSCAASGFTFNNYYMSWVRQTPERRLEWVAYISSSGGSTYYSDSVRGRFTISRDTARNTLYLQMTSLKSEDTAMYYCARHFGDYSYFDYWGQGTTLTVSS
VL: SIVMTQTPKFLLVSAGDRVTITCKASQSVSNDVAWFQQKPGQSPKLLIYYASNRYAGVPDRFTGSGFGTDFTFTISTVQAEDLAVYFCHQDYSSPRTFGGGTKLEIKRTVAAPDIQMTQSPASLSASVGETVTITCRASENFYSYLAWYQQKQGKSPQLLVYNAKTLAEGVPSRFSGSGSGTQFSLKINSLQPEDFGTYYCQHHYDIPLTFGAGTKLELKR
B9: DVD731 (bispecific antibody)
VH: QVQLQQPGSELVRPGASVKLSCKASGYTFTSYWMHWVKQRPGQGLEWIGNIYPGTVNTNYDEKFKNKATLTVDTSSSTAYMLLSSLTSEDSAVYYCTRDYYGGGLNYWGQGTTLTVSSASTKGPSVFPLAPEVQLVESGGGLVQPGGSLKLSCAASGFTFNNYYMSWVRQTPERRLEWVAYISSSGGSTYYSDSVRGRFTISRDTARNTLYLQMTSLKSEDTAMYYCARHFGDYSYFDYWGQGTTLTVSS
VL: SIVMTQTPKFLLVSAGDRVTITCKASQSVSNDVAWFQQKPGQSPKLLIYYASNRYAGVPDRFTGSGFGTDFTFTISTVQAEDLAVYFCHQDYSSPRTFGGGTKLEIKRTVAAPSVFIFPPDIQMTQSPASLSASVGETVTITCRASENFYSYLAWYQQKQGKSPQLLVYNAKTLAEGVPSRFSGSGSGTQFSLKINSLQPEDFGTYYCQHHYDIPLTFGAGTKLELKR

The binders below were run against neutrophil gelatinase associated lipocalin (NGAL) (UniProt P80188) (assay: [..] sandwich immunoassay).

binding, binds:
B1
B2
B3
B4
B5
B6
B7
B8
B9
